Measured values as given in article PMC12135187, “A role for pH dynamics regulating transcription factor DNA-binding selectivity”.
For some assays here: Tags and fusion partners may be left off the protein sequences shown. For some assays here: The exact form of at least one protein or probe is not confirmed. For some assays here: Negatives hold for the conditions tested. For some assays here: At least one verdict rests on a figure or table, not on a statement of the authors. For some assays here: Weaker means in comparison with the reference protein, sequence or condition of that experiment.

Chains of the proteins cited; added tags and fusions are not shown. Residues count along the entry.
UniProt Q08050, 222-360: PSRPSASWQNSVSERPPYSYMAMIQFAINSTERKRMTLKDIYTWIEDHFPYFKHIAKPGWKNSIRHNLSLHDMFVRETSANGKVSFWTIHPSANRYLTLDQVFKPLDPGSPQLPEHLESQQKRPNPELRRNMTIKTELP

Assays:
FOXC2 DBD WT [1] = biological target: T1, FOXC2 DBD WT (UniProt Q99958); experiment: SELEX-seq (GST pull-down, four rounds, 16-nt random library); conditions: pH 7.0; 20 mM HEPES, 140 mM KCl, 0.05 mM TCEP-HCl, pH 7.0, room temperature, 30 min; 2.5 uM GST-FOXC2 DBD, 0.25 uM DNA library; high values mean tight binding; recombinant protein; residues 72-172; protein details: N-terminal GST (pGEX-6P-2); only the motif is given; counted as no binding
T1 sequence (looked up): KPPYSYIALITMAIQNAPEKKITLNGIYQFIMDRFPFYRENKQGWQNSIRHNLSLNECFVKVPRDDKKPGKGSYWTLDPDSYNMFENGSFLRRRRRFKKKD

FOXN1 DBD WT = biological target: T2, FOXN1 DBD WT (UniProt O15353); experiment: fluorescence anisotropy; conditions: 20 mM HEPES, 140 mM KCl, 0.05 mM TCEP-HCl, pH 7.0 or 7.5 (pH titration 6.8-8.2), room temperature 30 min, 7.5 nM FAM-DNA, recombinant protein, residues 270-366, protein details: N-terminal GST (pGEX-6P-2)
T2 sequence (looked up): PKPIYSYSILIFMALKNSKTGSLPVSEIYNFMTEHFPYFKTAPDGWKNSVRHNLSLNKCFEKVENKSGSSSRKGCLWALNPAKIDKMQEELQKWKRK

FOXM1 DBD WT = FOXM1 DBD WT (UniProt Q08050); experiment: fluorescence anisotropy; conditions: 20 mM HEPES, 140 mM KCl, 0.05 mM TCEP-HCl, pH 7.0 or 7.5 (pH titration 6.8-8.2), room temperature 30 min, 7.5 nM FAM-DNA, recombinant protein, residues 222-360, protein details: N-terminal GST (pGEX-6P-2)
FOXC2 DBD WT [2] = biological target: T1, FOXC2 DBD WT; experiment: fluorescence anisotropy; conditions: 20 mM HEPES, 140 mM KCl, 0.05 mM TCEP-HCl, pH 7.0 or 7.5 (pH titration 6.8-8.2), room temperature 30 min, 7.5 nM FAM-DNA, recombinant protein, residues 72-172, protein details: N-terminal GST (pGEX-6P-2)
[3] = pH 7.5, lower affinity than at pH 7.0, label: 6-FAM

Row | Sequence | binding signal (relative enrichment) (FOXC2 DBD WT [1]) | also measured
1 | AAAAGT (double strand) | 0.183 | 
2 | AAAATT (double strand) | 0.101 | 
3 | AAATTA (double strand) | 0.196 | 
4 | AAATTT (double strand) | 0.156 | 
5 | AATGTA (double strand) | 0.193 | 
6 | ACAAAA (double strand) | 0.157 | 
7 | ACAACA (double strand) | 0.19 | 
8 | ACAACT (double strand) | 0.173 | 
9 | AGTTAT (double strand) | 0.194 | 
10 | ATTACA (double strand) | 0.18 | 
11 | ATTATA (double strand) | 0.196 | 
12 | CAACAA (double strand) | 0.178 | 
13 | CCATAAACAAC (double strand) [FkhP] |  | binding result (FOXN1 DBD WT; [3]): binds more weakly; binding result (FOXM1 DBD WT; [3]): binds more weakly; binding result (FOXC2 DBD WT [2]; [3]): binds more weakly
14 | CGACGCGACGC (double strand) [FHL 2x repeat] |  | binding result (FOXN1 DBD WT): no binding; binding result (FOXM1 DBD WT): no binding; binding result (FOXC2 DBD WT [2]): no binding
15 | GTTACA (double strand) | 0.146 | 
16 | TAACAA (double strand) | 0.165 | 
